{"source": "PubChem BioAssay AID1159578, Peter MacCallum Cancer Centre | 2015", "test": "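Genome-wide hunt for genes controlling movement of lymphatic endothelial cells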 (primary screen)", "cell system": "human lymphatic endothelial cells", "knock-down reagent": "siRNA pool against human genes, 40 nM", "time to read-out": "48 h after transfection", "read-out": "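Cells stained with dye and imaged after a scratch; covered wound area and nuclei counted, duplicates averaged, migration set against mock wells and turned into a robust z-score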", "reading the numbers": "migration robust z-score: higher = faster migration into the scratch; nuclei per well: higher = more cells in the well", "active means": "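Migration changed when robust z exceeds 2 or falls below -2 and mean nuclei number is at least 3300; otherwise not called changed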", "calls": "active = migration changed; inactive = no migration change, or too few cells", "note": "In all, the deposit lists about 18,000 reagents; this is a random part of them. About 1,030 of all reagents (5.7%) count as active. 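Inactive calls also include pools with fewer than 3300 nuclei, whose migration was not assessed.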 Raw values vary from plate to plate and are shown uncorrected. Not all columns of the deposit are shown."}
{"Target gene": "TAF1B (GeneID 9014)", "migration robust z-score": -0.24, "nuclei per well, duplicate mean": 5486, "Call": "inactive"}
{"Target gene": "MAP4K5 (GeneID 11183)", "migration robust z-score": -0.34, "nuclei per well, duplicate mean": 5119, "Call": "inactive"}
{"Target gene": "PMVK (GeneID 10654)", "migration robust z-score": -2.62, "nuclei per well, duplicate mean": 3831, "Call": "active"}
{"Target gene": "SLC35H1 (GeneID 51006)", "migration robust z-score": 0.37, "nuclei per well, duplicate mean": 5911, "Call": "inactive"}
{"Target gene": "EXOSC9 (GeneID 5393)", "migration robust z-score": -0.31, "nuclei per well, duplicate mean": 4956, "Call": "inactive"}
{"Target gene": "ALS2CL (GeneID 259173)", "migration robust z-score": -1.29, "nuclei per well, duplicate mean": 5471, "Call": "inactive"}
{"Target gene": "CFAP107 (GeneID 93190)", "migration robust z-score": 0.1, "nuclei per well, duplicate mean": 6972, "Call": "inactive"}
{"Target gene": "CT83 (GeneID 203413)", "migration robust z-score": -0.21, "nuclei per well, duplicate mean": 5680, "Call": "inactive"}
{"Target gene": "GAGE12I (GeneID 26748)", "migration robust z-score": 0.46, "nuclei per well, duplicate mean": 4594, "Call": "inactive"}
{"Target gene": "JAK3 (GeneID 3718)", "migration robust z-score": -0.05, "nuclei per well, duplicate mean": 3799, "Call": "inactive"}
{"Target gene": "CYTIP (GeneID 9595)", "migration robust z-score": -1.78, "nuclei per well, duplicate mean": 5442, "Call": "inactive"}
{"Target gene": "TEX13A (GeneID 56157)", "migration robust z-score": -0.18, "nuclei per well, duplicate mean": 5816, "Call": "inactive"}
{"Target gene": "RAD52 (GeneID 5893)", "migration robust z-score": -0.62, "nuclei per well, duplicate mean": 6186, "Call": "inactive"}
{"Target gene": "SLC26A4 (GeneID 5172)", "migration robust z-score": 0.28, "nuclei per well, duplicate mean": 5486, "Call": "inactive"}
